Source: the supplement of paper PMC11006884
Only a part is listed here, and it is no random draw. The data scatter; read single values as rough.

Chains of the proteins cited; added tags and fusions are not shown. Lines headed by an entry give the natural chain unless they say otherwise; changes in a name come on top.
UniProt Q14671: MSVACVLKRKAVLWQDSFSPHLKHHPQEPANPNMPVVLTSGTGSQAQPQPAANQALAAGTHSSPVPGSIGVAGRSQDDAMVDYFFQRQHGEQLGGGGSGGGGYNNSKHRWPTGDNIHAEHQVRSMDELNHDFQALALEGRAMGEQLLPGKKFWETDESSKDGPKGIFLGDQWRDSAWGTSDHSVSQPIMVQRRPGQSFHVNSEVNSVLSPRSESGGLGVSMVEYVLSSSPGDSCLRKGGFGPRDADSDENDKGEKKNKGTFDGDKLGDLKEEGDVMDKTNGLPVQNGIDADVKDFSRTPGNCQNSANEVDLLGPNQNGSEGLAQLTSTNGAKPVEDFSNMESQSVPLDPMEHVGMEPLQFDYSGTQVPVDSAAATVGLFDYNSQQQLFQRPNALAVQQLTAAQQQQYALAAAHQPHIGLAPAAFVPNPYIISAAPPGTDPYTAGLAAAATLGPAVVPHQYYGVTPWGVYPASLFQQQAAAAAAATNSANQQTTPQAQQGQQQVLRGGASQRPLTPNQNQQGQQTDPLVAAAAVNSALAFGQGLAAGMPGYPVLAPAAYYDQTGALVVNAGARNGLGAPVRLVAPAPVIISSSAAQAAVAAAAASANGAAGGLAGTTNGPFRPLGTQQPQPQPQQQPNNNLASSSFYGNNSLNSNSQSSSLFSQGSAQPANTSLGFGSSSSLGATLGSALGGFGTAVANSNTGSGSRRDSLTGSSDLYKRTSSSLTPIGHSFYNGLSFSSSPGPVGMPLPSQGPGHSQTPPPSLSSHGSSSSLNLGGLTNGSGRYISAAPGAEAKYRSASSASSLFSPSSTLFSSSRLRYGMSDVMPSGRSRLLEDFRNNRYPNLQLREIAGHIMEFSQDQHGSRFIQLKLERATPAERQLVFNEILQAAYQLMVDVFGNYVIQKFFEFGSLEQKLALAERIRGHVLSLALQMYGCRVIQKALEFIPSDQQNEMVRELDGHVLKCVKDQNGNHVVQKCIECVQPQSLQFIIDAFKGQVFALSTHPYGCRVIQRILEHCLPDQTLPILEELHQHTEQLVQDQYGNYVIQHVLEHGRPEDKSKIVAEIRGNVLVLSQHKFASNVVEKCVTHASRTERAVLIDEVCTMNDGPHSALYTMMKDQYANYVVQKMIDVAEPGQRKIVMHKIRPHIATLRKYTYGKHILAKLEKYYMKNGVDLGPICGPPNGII
UniProt Q14151: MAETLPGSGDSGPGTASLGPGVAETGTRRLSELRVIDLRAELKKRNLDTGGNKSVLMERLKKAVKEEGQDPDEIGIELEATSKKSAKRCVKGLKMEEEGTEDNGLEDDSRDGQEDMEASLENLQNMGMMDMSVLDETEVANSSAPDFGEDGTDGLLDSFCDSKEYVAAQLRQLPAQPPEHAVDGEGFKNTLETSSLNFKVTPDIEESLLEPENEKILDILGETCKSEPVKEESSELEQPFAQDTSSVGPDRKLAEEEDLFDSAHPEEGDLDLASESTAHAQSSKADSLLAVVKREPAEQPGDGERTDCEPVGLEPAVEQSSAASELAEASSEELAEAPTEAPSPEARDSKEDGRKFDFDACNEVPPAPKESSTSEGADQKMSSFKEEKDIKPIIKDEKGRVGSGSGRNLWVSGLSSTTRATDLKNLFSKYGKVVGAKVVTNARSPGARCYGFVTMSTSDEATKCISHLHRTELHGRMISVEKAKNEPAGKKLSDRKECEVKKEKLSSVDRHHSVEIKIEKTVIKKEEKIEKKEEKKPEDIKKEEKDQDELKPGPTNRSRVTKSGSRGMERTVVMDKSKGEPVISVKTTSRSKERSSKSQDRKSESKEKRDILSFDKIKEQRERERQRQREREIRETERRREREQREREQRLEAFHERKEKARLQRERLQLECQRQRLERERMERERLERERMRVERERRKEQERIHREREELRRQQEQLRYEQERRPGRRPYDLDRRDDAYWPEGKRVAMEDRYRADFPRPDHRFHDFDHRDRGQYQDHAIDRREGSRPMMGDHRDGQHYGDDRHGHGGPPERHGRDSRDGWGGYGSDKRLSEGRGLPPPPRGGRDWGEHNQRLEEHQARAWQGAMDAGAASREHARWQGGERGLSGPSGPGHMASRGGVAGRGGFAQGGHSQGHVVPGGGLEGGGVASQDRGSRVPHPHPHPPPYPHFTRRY
UniProt Q13615: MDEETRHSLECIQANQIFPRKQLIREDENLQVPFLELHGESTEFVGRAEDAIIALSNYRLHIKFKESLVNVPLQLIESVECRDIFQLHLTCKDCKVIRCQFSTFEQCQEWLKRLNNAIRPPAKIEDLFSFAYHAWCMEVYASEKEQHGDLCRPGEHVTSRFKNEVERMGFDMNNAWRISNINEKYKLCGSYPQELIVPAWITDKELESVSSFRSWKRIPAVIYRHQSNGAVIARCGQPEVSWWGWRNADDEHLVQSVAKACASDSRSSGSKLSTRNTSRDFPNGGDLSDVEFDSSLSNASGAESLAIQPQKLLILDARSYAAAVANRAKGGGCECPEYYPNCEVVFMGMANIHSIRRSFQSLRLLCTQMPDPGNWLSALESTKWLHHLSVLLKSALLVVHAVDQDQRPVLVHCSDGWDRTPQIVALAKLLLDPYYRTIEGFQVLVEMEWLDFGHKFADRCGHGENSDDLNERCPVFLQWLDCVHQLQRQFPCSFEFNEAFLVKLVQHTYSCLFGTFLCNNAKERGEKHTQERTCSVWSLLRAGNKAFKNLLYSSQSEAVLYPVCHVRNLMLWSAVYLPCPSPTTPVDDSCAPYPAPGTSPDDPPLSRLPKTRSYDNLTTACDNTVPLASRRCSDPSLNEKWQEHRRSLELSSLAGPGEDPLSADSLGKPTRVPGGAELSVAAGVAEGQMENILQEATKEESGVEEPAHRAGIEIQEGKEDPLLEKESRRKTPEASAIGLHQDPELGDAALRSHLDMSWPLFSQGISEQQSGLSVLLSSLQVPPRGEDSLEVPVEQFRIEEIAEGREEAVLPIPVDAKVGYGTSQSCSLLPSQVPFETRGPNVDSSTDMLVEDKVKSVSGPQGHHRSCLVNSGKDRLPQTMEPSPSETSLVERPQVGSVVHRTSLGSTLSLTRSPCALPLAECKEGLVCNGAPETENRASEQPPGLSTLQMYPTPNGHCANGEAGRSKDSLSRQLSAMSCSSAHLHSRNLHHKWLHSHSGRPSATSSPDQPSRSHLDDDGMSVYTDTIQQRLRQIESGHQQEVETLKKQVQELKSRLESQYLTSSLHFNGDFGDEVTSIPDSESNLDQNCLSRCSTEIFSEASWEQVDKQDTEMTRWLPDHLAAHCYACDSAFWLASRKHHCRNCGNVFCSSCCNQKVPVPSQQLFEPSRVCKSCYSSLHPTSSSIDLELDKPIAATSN
UniProt Q15003, whole entry, looked up: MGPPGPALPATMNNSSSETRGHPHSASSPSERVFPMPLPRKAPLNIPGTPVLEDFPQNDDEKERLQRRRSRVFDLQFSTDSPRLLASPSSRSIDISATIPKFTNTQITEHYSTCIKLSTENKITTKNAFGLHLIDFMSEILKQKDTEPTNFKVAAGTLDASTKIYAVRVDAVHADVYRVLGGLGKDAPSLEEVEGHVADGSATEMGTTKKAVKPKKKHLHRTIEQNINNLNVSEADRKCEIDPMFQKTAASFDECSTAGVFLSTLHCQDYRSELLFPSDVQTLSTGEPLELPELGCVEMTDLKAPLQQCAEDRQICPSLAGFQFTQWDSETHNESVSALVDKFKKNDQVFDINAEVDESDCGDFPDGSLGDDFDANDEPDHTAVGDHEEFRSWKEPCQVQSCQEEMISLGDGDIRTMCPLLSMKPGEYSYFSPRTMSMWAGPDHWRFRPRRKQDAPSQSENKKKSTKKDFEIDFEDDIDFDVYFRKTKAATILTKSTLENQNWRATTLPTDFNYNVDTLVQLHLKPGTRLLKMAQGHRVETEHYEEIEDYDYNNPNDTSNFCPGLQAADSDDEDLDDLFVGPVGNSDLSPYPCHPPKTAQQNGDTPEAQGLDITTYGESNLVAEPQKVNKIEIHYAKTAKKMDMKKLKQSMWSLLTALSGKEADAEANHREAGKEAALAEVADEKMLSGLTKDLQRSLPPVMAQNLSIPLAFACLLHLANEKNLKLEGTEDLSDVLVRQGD
UniProt Q15020: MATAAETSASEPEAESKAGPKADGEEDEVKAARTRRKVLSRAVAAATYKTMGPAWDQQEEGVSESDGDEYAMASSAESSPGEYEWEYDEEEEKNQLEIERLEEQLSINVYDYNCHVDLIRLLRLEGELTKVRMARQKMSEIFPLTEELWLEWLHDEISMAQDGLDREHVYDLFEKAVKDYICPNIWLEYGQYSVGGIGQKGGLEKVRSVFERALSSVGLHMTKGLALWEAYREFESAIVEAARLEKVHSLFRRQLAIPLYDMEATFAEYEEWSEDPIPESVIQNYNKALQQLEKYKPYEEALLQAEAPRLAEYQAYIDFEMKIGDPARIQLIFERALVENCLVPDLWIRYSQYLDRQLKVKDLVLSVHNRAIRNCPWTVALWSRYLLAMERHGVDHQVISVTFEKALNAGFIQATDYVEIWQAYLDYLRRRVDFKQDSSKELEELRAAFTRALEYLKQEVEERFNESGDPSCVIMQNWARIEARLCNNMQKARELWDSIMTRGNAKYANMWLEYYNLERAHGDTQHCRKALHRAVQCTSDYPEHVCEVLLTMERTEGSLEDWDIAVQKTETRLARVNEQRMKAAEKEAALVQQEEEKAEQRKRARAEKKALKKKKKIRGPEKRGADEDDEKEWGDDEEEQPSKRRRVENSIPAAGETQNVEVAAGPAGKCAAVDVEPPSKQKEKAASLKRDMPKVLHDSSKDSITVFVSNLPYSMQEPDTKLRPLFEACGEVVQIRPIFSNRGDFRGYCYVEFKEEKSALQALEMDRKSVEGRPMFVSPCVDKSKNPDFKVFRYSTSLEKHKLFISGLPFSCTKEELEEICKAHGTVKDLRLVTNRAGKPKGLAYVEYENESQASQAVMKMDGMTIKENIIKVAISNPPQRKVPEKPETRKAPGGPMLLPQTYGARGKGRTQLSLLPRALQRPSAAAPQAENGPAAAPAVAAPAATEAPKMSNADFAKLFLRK
UniProt Q14168: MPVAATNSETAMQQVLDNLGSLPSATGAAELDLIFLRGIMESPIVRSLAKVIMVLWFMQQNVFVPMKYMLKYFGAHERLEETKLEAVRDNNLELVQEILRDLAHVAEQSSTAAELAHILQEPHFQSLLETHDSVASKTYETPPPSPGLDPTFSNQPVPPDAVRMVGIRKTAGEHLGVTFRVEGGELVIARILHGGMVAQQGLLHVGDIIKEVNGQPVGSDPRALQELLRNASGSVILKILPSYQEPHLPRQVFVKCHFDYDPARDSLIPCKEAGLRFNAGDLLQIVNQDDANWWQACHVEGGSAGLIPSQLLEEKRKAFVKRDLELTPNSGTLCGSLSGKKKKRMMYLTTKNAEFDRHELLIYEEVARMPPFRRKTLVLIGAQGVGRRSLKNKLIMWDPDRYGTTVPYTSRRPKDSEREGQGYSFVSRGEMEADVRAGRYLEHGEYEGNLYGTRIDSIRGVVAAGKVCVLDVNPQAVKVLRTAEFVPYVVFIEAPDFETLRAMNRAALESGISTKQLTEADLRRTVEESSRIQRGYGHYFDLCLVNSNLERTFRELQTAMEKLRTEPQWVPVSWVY
UniProt Q14684: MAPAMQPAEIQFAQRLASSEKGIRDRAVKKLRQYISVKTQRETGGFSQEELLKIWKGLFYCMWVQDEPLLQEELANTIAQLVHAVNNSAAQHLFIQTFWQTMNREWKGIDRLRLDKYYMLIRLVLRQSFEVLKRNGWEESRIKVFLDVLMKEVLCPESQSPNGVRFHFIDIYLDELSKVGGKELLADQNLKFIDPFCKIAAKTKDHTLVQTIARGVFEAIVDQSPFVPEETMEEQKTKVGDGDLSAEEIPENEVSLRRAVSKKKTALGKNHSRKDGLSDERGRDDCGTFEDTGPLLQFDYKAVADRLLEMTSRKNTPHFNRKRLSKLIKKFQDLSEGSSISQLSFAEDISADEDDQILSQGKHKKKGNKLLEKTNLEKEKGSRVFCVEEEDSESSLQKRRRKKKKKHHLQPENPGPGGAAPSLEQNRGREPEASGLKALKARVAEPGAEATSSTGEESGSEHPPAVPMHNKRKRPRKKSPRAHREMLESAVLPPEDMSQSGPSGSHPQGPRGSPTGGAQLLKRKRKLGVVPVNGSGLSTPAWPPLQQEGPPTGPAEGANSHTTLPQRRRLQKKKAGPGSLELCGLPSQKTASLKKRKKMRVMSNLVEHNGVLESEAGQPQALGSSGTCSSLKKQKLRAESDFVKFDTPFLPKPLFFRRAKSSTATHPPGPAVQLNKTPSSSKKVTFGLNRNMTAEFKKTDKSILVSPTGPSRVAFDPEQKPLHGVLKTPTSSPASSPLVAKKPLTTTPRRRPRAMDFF

Compound: COC(=O)/C=C/c1ccccc1 [methyl cinnamate]
Experiment: log2 ratio of iodoacetamide-alkyne labeling of the cysteine site, DMSO over compound (competition); higher = stronger covalent engagement of the cysteine by the compound, active = 1 or more
Conditions: 500 µM; treatment time 1 h; system: HEK293T cell lysate
Procedure, shortened: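 Reporter intensities give each cysteine's log2 competition ratio as the mean of control channels over the mean of compound channels. The samples were HEK293T lysate (2 mg/mL) given vehicle or electrophile (500 µM, 1 h, ambient temperature), then iodoacetamide alkyne (1 h), followed by click coupling to sCIP-TMT reagents, pooling, trypsin digestion overnight at 37 °C, streptavidin enrichment, acid elution, Orbitrap Eclipse LC-MS/MS with FAIMS and FragPipe quantification. Duplicate channels and three replicates were run, and cysteines quantified in only one replicate were discarded.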

log2 ratio of iodoacetamide-alkyne labeling, inactive:
CTTN C112 (UniProt Q14247) 0.306
PUM1 C5 (UniProt Q14671) 0.453
UniProt Q15019_C114 -0.124
GANAB C502 (UniProt Q14697) 0.011
KPNB1 C826 (UniProt Q14974) 0.588
SAFB2 C672 (UniProt Q14151) 0.166
DYNC1H1 C2142 (UniProt Q14204) 0.442
ZMYM3 C1326 (UniProt Q14202) 0.164
ZNF638 C879 (UniProt Q14966) 0.272
ESPL1 C1369 (UniProt Q14674) 0.00537
CAMK1 C354 (UniProt Q14012) -0.0181
POLA2 C198 (UniProt Q14181) 0.223
SQSTM1 C131 (UniProt Q13501) 0.0308
SNX1 C318 (UniProt Q13596) 0.193
KPNB1 C689 (UniProt Q14974) 0.0823
DSG2 C871 (UniProt Q14126) -0.0236
TRA2A C120 (UniProt Q13595) 0.105
GALE C196 (UniProt Q14376) -0.00548
MTMR3 C826 (UniProt Q13615) 0.0328
CHD4 C1594 (UniProt Q14839) -0.00684
HNRNPD C126 (UniProt Q14103) 0.176
NCAPH C255 (UniProt Q15003) -0.0408
SART3 C670 (UniProt Q15020) 0.329
MPP2 C334 (UniProt Q14168) 0.115
CAMK1 C179 (UniProt Q14012) 0.294
UniProt Q14241_C339 0.118
SCRIB C1082 (UniProt Q14160) -0.18
RBM39 C303 (UniProt Q14498) 0.0917
RRP1B C628 (UniProt Q14684) 0.496
SAFB2 C361 (UniProt Q14151) 0.154
NCAPD2 C1249 (UniProt Q15021) -0.422
KIF22 C575 (UniProt Q14807) -0.099
CKAP5 C1500 (UniProt Q14008) 0.0908
SPTAN1 C2233 (UniProt Q13813) 0.0554
PUM1 C964 (UniProt Q14671) 0.17
PDCD11 C1218 (UniProt Q14690) 0.258
RRP1B C386 (UniProt Q14684) 0.348

Reprinted at random: 2 records from the list.
log2 ratio of iodoacetamide-alkyne labeling, inactive:
PUM1 C5 (UniProt Q14671) 0.453
PUM1 C964 (UniProt Q14671) 0.17
